Measurements taken from PMC3871820.
These are yes or no findings as the source states them, for the method shown.

Sequences of proteins named here, by UniProt entry; tags and fusion partners are left off.
UniProt Q9SJK7: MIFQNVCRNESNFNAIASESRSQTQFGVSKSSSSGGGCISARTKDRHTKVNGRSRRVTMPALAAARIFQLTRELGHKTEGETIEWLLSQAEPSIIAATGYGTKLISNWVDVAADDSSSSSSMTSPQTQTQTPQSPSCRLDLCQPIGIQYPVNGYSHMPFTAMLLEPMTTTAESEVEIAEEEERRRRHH
UniProt Q9FTA2: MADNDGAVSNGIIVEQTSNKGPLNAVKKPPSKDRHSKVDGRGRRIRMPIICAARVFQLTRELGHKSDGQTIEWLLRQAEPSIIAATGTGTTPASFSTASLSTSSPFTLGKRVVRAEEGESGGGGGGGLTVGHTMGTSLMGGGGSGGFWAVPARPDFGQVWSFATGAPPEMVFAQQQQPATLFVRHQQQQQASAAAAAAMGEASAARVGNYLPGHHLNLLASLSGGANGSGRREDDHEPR
UniProt Q9FMX2: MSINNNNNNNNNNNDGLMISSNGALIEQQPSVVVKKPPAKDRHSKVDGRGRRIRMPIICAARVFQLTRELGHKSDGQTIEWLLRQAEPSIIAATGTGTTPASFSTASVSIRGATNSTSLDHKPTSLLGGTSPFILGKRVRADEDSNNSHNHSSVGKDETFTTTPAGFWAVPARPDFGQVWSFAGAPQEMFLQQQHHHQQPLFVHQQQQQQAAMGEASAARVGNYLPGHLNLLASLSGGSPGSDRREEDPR
UniProt Q9C518: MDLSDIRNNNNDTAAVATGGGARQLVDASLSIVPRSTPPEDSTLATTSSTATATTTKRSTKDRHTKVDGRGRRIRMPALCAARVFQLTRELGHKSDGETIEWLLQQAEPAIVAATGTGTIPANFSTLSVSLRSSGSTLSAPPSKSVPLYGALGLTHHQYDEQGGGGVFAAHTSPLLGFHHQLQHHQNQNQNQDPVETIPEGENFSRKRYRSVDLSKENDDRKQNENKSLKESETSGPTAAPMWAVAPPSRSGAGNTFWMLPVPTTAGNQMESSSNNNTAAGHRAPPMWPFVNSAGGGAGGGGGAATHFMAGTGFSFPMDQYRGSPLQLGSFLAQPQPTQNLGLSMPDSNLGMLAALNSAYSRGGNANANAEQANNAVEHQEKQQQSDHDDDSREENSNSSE
UniProt O64647: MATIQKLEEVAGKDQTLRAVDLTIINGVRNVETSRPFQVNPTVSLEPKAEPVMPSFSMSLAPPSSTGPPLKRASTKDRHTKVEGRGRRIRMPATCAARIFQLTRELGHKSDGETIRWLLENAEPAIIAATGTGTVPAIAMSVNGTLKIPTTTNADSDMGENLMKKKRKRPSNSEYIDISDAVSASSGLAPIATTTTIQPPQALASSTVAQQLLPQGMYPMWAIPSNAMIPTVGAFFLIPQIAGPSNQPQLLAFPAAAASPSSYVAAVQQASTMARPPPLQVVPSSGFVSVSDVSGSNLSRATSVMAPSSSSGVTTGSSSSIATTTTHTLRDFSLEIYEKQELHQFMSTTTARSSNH

What was measured:
Test in all cases: two-hybrid; matrix-based GAL4 yeast two-hybrid by mating (baits in PJ69-4alpha, preys in PJ69-4a); selection on SD-Leu-Trp-Ade or SD-Leu-Trp-His with 5 and 10 mM 3-amino-1,2,4-triazole; scored after 5 days at 30 °C; BD baits of TCP1, 2, 4, 10, 12, 18, 20 and 24 excluded for auto-activation; positive only if reproducible with at least two selection markers
[1] = target: TCP11 (Arabidopsis thaliana) (UniProt Q9SJK7)
[2] = target: T1, TCP13 (Arabidopsis thaliana) (UniProt Q9S7W5)
T1 sequence: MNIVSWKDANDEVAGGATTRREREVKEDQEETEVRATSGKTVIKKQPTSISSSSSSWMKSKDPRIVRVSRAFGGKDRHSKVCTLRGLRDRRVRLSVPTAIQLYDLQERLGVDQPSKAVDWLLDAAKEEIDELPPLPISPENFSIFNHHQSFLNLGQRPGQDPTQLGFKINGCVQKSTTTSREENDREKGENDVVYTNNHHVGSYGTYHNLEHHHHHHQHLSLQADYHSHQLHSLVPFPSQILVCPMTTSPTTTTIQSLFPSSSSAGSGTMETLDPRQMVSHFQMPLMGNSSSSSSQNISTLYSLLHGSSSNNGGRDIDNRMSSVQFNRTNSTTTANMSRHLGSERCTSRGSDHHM

[3] = target: T2, TCP19 (Arabidopsis thaliana) (UniProt Q9LT89)
T2 sequence: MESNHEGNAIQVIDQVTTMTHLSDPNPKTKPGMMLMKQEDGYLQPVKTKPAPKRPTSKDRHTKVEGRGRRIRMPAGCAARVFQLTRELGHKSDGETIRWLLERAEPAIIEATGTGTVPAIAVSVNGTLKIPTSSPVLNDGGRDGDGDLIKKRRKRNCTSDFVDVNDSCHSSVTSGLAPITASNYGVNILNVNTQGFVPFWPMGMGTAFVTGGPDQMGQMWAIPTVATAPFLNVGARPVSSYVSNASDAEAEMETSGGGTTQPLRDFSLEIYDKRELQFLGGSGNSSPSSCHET

[4] = target: TCP21 (Arabidopsis thaliana) (UniProt Q9FTA2)
[5] = target: T3, TCP5 (Arabidopsis thaliana) (UniProt Q9FME3)
T3 sequence: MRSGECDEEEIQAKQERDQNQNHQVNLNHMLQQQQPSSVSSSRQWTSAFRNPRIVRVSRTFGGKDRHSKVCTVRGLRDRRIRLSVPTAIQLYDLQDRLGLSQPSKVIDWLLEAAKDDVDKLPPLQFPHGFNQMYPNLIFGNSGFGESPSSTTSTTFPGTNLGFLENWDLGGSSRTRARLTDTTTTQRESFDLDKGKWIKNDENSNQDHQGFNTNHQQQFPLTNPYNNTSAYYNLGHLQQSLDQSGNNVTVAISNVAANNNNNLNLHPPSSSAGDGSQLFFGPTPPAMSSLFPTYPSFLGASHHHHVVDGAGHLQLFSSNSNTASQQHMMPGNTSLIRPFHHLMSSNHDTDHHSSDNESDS

[6] = target: T4, TCP6 (Arabidopsis thaliana) (UniProt Q9FLM6)
T4 sequence: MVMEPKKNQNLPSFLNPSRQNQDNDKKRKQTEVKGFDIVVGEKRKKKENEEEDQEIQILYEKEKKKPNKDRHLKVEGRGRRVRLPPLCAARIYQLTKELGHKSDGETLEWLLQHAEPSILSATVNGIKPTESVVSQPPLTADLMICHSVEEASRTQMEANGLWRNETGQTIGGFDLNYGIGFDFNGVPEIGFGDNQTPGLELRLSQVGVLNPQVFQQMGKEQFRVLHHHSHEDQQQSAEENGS

[7] = target: TCP7 (Arabidopsis thaliana) (UniProt Q9FMX2)
[8] = target: TCP8 (Arabidopsis thaliana) (UniProt Q9C518)

Measured: binding

TCP9 (from UniProt O64647 1-356)
no binding: all assays above
